Source: PubChem BioAssay AID624297 (National Center for Advancing Translational Sciences (NCATS), 2012)
Several values for one entry are separate records, joined by “and”; a condition that tells them apart may be missing. Identical values can stand only once. The whole screen tested about 340,000 compounds, of which about 6,200 (1.8%) were called active. This list was built around the results that the source calls inconclusive (neither active nor inactive); the mix of calls is not that of the screen. The call rests on the fitted dose curve; in most records, active means well fitted activation curve with a large enough effect; inconclusive means small, poorly fitted or top-dose-only effect; inactive means no such curve, though single readings can be large or run the other way. Potencies beside an inconclusive call are fits to weak or partial responses and may not hold up.

Assay: A quantitative high throughput screen for small molecules that induce DNA re-replication in SW480 colon adenocarcinoma cells. Further: nearly all actives have a fitted effect of over 55% in size.
Details: Hoechst DNA content imaging, 48 h; series mostly up to 46.1 µM
Method in brief: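 Treated cells incubate 48 hr (37 C, 5% CO2), are stained 40 min with Hoechst, and nuclear fluorescence is enumerated; a rise in nuclei with high DNA signal marks re-replication.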
Potency means the concentration at half of the fitted maximal effect.

Compound	Potency
CCOc1cc(CNCCc2c[nH]c3ccccc23)cc(Cl)c1OCC	inconclusive: 29.1 µM [activator, single point]
COc1cc2c(cc1OC)CN(c1ccc([N+](=O)[O-])c(C(F)(F)F)c1)CC2	inactive
C[C@]12CCC(=O)C(O)=C1CC[C@@H]1[C@@H]2CC[C@]2(C)C(=O)CC[C@@H]12	inconclusive: 20.6 µM [activator, single point]
O=c1c2ccccc2nc(/C=C/c2ccc(O)cc2)n1-c1cccc(O)c1	inconclusive: 20.6 µM [activator, single point]
CCOC(=O)c1cccc(-[n+]2c(-c3ccccc3)cc(-c3ccccc3)cc2-c2ccccc2)c1	inconclusive: 2.59 µM [activator, full curve, poor fit]
COC(=O)C1=C(c2ccc(Cl)c(C(F)(F)F)c2)C[C@@H]2CC[C@H]1N2C(=O)NC1CCCCC1	inconclusive: 18.4 µM [activator, single point]
O=C(OC1CCN(CCCl)CC1)C(c1ccccc1)c1ccccc1	inconclusive: 28.2 µM [activator, single point]
c1ccc(CCCN2CCN(CCOC(c3ccccc3)c3ccccc3)CC2)cc1	inconclusive: 1.46 µM [activator, single point]
COC(=O)[C@H]1[C@H]2C[C@@H]3c4[nH]c5cc(OC)ccc5c4CCN3C[C@H]2C[C@@H](OC(=O)/C=C/c2cc(OC)c(OC)c(OC)c2)[C@@H]1OC	active: 18.4 µM
CCCNC(=O)N1[C@H]2CC[C@@H]1C(C(=O)OC)=C(c1cc3ccccc3s1)C2	inactive
C=CCn1c(O)c(C(C)=Nc2ccc(N(CC)CC)cc2)c(=O)[nH]c1=O	active: 14.6 µM
CCCCCCCCCCOC(=O)CCN1CC1	inactive
COc1ccc(NC(=O)CN(C)S(=O)(=O)c2ccc3[nH]c(=O)oc3c2)cc1	inconclusive: 0.0092 µM [activator, full curve, poor fit]
CCOC(=O)c1ccc2c(c1)N(CC)C(=O)c1ccccc1S2	inconclusive: 0.651 µM [activator, partial curve, poor fit]
O=C(O)C1C2CCC(O2)C1C(=O)Nc1ccc(F)c(F)c1 (configuration not stated)	inconclusive: 23.1 µM [activator, single point]
CCC(CO)(C(=O)OC1C[N+]2(C)CCC1CC2)c1ccccc1 (configuration not stated)	inactive
CCc1n[nH]c(CCN)n1	inconclusive: 9.2 µM [activator, single point]
COc1cc(NC(=O)c2ccco2)ccc1NC(=O)c1ccccc1Cl	inconclusive: 0.517 µM [activator, full curve, poor fit]
Cc1ccc(N2C(=O)NC(=O)/C(=C\c3cccn3C(C)(C)C)C2=O)cc1	inconclusive: 0.82 µM [activator, full curve, poor fit]
CN1C2CC(OC(=O)C(CO)c3ccccc3)CC1C1OC12 (configuration not stated)	inactive
CCCCC(=O)N/N=C/c1c(O)n(CCC2=CCCCC2)c(=O)[nH]c1=O	inconclusive: 1.46 µM [activator, full curve, poor fit]
CCCCCCOc1ccc(CN2CCN(C)CC2)cc1	inconclusive: 20 µM [activator, single point]
CC1=CC2OC3CC4OC(=O)C=CC=CC(=O)OCCC(C)C(O)C(=O)OCC2(CC1)C4(C)C31CO1 (configuration not stated)	inconclusive: 0.0651 µM [activator, full curve]

Compound	Potency
O=C1CN=C(c2ccc(F)cc2)c2oc3ccccc3c2N1	inactive
O=c1c(C=NCCN2CCNCC2)c(O)n(C2CCCCC2)c(=O)n1C1CCCCC1	inconclusive: 14.6 µM [activator, single point]
Nc1ccc(-c2ccccc2)cc1	inactive
CCCCN=C[C@]12CCC(O)CC1(O)CCC1[C@@H]2CC[C@]2(C)[C@H](C3C=CC(=O)O3)CCC12O (some centres not stated)	active: 2.31 µM
COC(=O)C1=C(c2ccc(F)cc2OCc2ccccc2)C[C@@H]2CC[C@H]1N2C(=O)NCc1ccc(Br)cc1	inactive
N#CSCC(=O)N1c2ccccc2CCc2ccccc21	inconclusive: 29.1 µM [activator, single point]
CN1CC(C(=O)c2ccccc2)C(c2ccccc2)C1 (configuration not stated)	inactive
Clc1cc(Cl)c(-c2cc(Cl)c(Cl)cc2Cl)cc1Cl	inconclusive: 0.0052 µM [activator, full curve, poor fit]
CCOP(=O)(OCC)C(O)c1ccc(OC)cc1OC (configuration not stated)	inconclusive: 25.9 µM [activator, single point]
CCCCn1c(O)c(/C=C2/C=CC=N2)c(=O)[nH]c1=O	inconclusive: 3.26 µM [activator, partial curve, poor fit]
CCCCCCCCCC(CC)c1ccc(S(=O)(=O)O)cc1 (configuration not stated)	inconclusive: 16.8 µM [activator, single point]
C=CCn1c(=O)/c(=C\c2ccccn2)s/c1=C(/C#N)C(=O)NCC1CCCO1 (configuration not stated)	inconclusive: 29.1 µM [activator, single point]
O=Cc1cn(Cc2c(F)cccc2Cl)nc1-c1ccccc1	inactive
Cc1cc(C)c2c(c1)NP(=S)(c1ccccc1)N2 (configuration not stated)	inactive
COC(=O)[C@@H]1[C@@H](C(=O)OC)C2(c3ccccc3-c3ccccc32)N(c2ccc(Cl)cc2)N1C#N	active: 9.2 µM
CC(C)CCOP(=O)(c1ccc(N(C)C)cc1)C(O)c1ccc(C(C)C)cc1 (configuration not stated)	inconclusive: 6.51 µM [activator, partial curve, poor fit]
O=C(c1ccc2c(c1)ncn2-c1ccc(F)cc1F)N1CCC2(CC1)OCCO2	inconclusive: 20.6 µM [activator, single point]
Cc1ccc(-n2sc3ccccc3c2=O)cc1	inconclusive: 16.4 µM [activator, single point]
Cc1ccc(OCCn2cccc2/C=C2/C(=O)NC(=O)N(Cc3ccco3)C2=O)cc1	inactive
CN1C2CCC1CC(OC(=O)c1cc(Cl)cc(Cl)c1)C2 (configuration not stated)	inactive and inconclusive: 13.3 µM [activator, partial curve, poor fit]
NC(N)=Nc1ccc2[nH]c3c(c2c1)C[C@@]1(O)[C@H]2Cc4ccc(O)c5c4[C@@]1(CCN2CC1CC1)C3O5 (some centres not stated)	inconclusive: 0.231 µM [activator, single point]
O=C(NC(=S)N1C[C@H]2C[C@H](C1)c1cccc(=O)n1C2)c1ccc(Cl)cc1Cl	inconclusive: 2.91 µM [activator, single point]
CC(C)(C)C(=O)OC[N+](C)(C)CCOC(=O)C(O)(c1ccccc1)C1CCCC1 (configuration not stated)	inconclusive: 20.6 µM [activator, partial curve, poor fit]

Compound	Potency
CCCN1CCCC(C(=O)c2cc(C)c(OC)c(C)c2)C1 (configuration not stated)	inconclusive: 2.06 µM [activator, partial curve, poor fit]
CC[C@H]1CC2CN3CCc4c([nH]c5ccccc45)C(C(=O)OC)(C2)C13 (some centres not stated)	inconclusive: 29.1 µM [activator, single point]
CCC(=O)OC1CCC2C3CCC4CC(=O)C=CC4(C)C3CCC12C (configuration not stated)	inconclusive: 29.1 µM [activator, single point]
COC(=O)c1c(N)n(Cc2ccc(OC)cc2)c2nc3ccccc3nc12	inconclusive: 29.1 µM [activator, single point]
CCCCn1c(=O)c(C(=O)NCc2ccco2)c(O)c2ccccc21	inconclusive: 29.1 µM [activator, single point]
COc1ccccc1-n1c(-c2ccoc2)nc2ccccc2c1=O	inactive
CN(C(=O)CNC(=O)OCc1ccccc1)c1ccc(Br)cc1C(=O)c1ccccc1Cl	active: 11.6 µM
CCOC(=O)C(NC(C)=O)C(OC(C)=O)c1cccc(N(CCCl)CCCl)c1 (configuration not stated)	inconclusive: 20.6 µM [activator, single point]
Cc1nc(C)c(C(=O)NN=Cc2ccc(N(CCCl)CCCl)cc2)s1	inconclusive: 20.6 µM [activator, partial curve, poor fit]
Cc1[nH]c2c(C(F)(F)F)cccc2c1CCN	inconclusive: 29.1 µM [activator, single point]
CCOc1cc2c(cc1OCC)-n1cccc1C(c1ccc(C(C)C)cc1)NC2 (configuration not stated)	inconclusive: 29.1 µM [activator, single point]
Cc1ccc(NC(=O)Cn2c(=O)oc3ccccc32)cc1C	inconclusive: 6.51 µM [activator, single point]
CN1C(=O)/C(=C\N2CCc3ccccc32)C(=O)NC1=S	inactive
O=c1[nH]c(=O)n(-c2cccc3ccccc23)c(O)c1/C=N/N1CCCCC1c1cccnc1 (configuration not stated)	inconclusive: 25.9 µM [activator, single point]
Cn1c(O)c(C=NCCc2c[nH]c3ccccc23)c(=O)n(C)c1=O	inactive
CCCCCCOc1ccc(CN2CCN(CCO)CC2)cc1	inconclusive: 25.9 µM [activator, single point]
CN1CCC(O)(c2ccc(Cl)cc2)C(C(=O)c2ccc(Cl)cc2)C1 (configuration not stated)	inconclusive: 20.6 µM [activator, single point]
CCCCn1c(C)c(C(=O)O)c2cc(OC)ccc21	inactive
CC(=NCCO)c1c(O)n(C2CCCCC2)c(=O)[nH]c1=O	inactive
COCCNC(=O)c1c(NC(=O)c2ccc(Br)o2)n(Cc2ccccc2)c2nc3ccccc3nc12	inconclusive: 9.2 µM [activator, partial curve]
COCCCn1c(N)c(C(=O)OCCOC)c2nc3ccccc3nc21	inconclusive: 29.1 µM [activator, single point]
